Some entries share one result that the patent states for a list of compounds.
System: S. aureus Oxford, S. aureus WCUH29, S. pneumoniae 1629, S. pneumoniae N1387, S. pneumoniae ERY 2, E. faecalis I, E. faecalis 7, H. influenzae Ql, H. influenzae …
Assay: MIC of test compounds against various organisms
Format: cell-based
Details: bound holds for all 11 organisms of the panel
Description: The MIC (jig/ml) of test compounds against various organisms was determined:
S. aureus Oxford, S. aureus WCUH29, S. pneumoniae 1629, S. pneumoniae N1387, S. pneumoniae ERY 2, E. faecalis I, E. faecalis 7, H. influenzae Ql, H. influenzae NEMC1, M. catarrhalis 1502, E. coli 7623.

With “4-Hydroxy-1-[2-R-hydroxy-2-(3-oxo-3,4-dihydro-2H-benzo[1,4]thiazin-6-yl)-ethyl]-piperidine-4-carboxylic acid (6-methoxy-[1,5]naphthyridin-4-ylamide dihydrochloride and 4-Hydroxy-1-[2-S-hydroxy-2-(3-oxo-3,4-dihydro-2H-benzo[1,4]-thiazin-6-yl)-ethyl]-piperidine-4-carboxylic acid (6-methoxy-[1,5]naphthyridin-4-yl)-amide dihydrochloride [Example 15]” the “MIC versus all these organisms” value was “less than or equal to 16 μg/ml”.

From patent US20040198756A1, “Medicaments” (priority 2001, published 2004)
